The values below come from doi:10.1101/2025.06.30.662394.

Amino acid sequences for entries named in this document (tags omitted).
UniProt Q9BYB0: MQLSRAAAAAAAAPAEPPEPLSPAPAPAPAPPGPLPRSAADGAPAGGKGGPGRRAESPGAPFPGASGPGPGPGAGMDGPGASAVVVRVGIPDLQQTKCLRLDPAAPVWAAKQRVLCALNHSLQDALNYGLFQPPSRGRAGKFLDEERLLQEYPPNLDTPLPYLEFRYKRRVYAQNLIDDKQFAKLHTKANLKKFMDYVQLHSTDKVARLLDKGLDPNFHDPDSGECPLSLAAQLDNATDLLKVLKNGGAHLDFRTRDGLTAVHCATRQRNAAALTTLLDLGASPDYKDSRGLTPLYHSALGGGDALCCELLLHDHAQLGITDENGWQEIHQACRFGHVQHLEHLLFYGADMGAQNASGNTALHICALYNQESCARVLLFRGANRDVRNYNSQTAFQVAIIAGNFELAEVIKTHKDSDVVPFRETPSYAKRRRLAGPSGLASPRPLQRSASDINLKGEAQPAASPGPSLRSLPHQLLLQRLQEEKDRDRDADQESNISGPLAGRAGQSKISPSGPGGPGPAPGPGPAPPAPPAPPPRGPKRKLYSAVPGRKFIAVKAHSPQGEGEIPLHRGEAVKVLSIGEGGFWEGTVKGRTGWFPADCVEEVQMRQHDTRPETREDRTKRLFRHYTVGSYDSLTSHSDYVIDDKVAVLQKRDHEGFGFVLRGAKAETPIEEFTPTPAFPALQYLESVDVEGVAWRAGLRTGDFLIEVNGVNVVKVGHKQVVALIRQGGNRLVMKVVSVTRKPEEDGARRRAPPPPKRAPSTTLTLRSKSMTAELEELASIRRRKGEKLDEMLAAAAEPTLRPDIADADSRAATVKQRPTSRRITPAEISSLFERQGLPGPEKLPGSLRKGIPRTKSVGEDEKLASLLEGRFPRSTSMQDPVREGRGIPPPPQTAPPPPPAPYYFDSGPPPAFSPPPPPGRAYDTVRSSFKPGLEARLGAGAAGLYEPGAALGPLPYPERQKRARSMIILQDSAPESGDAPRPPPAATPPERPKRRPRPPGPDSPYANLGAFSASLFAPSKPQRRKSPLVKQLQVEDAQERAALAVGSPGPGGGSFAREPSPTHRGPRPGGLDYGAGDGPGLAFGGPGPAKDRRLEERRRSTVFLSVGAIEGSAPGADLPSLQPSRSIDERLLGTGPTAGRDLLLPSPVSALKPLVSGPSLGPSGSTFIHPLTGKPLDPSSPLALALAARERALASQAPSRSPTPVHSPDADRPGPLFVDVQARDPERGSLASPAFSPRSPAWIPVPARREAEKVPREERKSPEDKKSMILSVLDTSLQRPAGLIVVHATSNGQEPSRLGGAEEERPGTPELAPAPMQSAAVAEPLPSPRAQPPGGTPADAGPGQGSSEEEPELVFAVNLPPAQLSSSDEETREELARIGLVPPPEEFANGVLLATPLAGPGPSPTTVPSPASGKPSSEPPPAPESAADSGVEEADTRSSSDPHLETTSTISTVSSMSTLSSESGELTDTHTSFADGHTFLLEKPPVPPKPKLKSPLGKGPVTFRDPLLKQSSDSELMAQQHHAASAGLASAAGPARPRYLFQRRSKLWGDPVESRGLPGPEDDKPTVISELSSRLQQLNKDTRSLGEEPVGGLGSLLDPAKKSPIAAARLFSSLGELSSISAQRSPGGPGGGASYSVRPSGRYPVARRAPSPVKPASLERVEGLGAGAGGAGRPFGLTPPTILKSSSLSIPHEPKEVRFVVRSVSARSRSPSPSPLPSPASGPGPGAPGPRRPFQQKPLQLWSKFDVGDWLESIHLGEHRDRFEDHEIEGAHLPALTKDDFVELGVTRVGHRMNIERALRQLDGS

The target in experiment [1] is T1, Lphn2-APEX2 fusion protein (UniProt O95490).
T1 sequence: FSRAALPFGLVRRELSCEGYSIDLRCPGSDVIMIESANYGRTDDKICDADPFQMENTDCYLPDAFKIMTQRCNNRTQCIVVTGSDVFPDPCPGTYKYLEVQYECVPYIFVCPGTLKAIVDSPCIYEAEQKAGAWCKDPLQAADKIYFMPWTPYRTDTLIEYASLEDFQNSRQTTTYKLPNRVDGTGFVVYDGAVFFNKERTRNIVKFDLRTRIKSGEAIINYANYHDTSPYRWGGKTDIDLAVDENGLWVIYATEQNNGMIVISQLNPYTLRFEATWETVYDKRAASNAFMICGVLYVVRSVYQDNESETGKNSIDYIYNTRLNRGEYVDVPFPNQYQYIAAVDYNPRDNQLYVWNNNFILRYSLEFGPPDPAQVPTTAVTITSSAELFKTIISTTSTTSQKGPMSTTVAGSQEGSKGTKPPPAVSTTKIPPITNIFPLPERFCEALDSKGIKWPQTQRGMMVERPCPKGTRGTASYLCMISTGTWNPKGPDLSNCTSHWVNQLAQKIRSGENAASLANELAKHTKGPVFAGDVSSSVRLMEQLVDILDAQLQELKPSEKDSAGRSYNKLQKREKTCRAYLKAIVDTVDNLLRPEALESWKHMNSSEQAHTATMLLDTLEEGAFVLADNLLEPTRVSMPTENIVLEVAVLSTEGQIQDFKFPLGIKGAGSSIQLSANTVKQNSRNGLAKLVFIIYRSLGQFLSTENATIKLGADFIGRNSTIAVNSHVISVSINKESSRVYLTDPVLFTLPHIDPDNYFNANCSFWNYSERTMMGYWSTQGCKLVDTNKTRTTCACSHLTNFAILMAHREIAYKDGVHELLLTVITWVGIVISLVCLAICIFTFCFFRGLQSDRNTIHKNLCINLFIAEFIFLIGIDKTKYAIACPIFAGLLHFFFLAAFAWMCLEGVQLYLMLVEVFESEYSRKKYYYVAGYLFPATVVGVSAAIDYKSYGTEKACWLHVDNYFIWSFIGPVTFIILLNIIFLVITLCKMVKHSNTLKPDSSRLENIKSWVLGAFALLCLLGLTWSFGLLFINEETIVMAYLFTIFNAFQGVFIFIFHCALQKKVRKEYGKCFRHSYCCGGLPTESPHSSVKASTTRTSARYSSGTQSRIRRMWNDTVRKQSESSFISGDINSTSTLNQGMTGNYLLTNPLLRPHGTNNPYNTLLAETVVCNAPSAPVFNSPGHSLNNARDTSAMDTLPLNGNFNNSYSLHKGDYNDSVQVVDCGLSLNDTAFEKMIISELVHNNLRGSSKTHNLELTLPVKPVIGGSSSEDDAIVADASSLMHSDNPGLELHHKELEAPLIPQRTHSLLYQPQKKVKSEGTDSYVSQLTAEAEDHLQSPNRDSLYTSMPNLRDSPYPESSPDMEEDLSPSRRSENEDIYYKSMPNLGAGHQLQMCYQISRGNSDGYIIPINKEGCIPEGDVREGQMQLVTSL
The experiment can be described thus: proximity labelling.

Experiment [2] concerns the target T1, Lphn2-APEX2 fusion protein. Briefly: proximity labelling. This is another data set of the same source.

Where two headings read alike, the source gives them in different places. No constants are given. Whether binding was seen depends on the method and setting. In cells and extracts the contact can be indirect. These calls come from enrichment with a bait or labelling near it, and not all partners need be listed. Where a sequence is shown, tags or fusion partners need not be part of it.

As for “Shank3 (endogenous) (from UniProt Q9BYB0 1-1806)”, the binding entry in experiment [1] is on record as “binds”.

B1: Endoglin (endogenous) (receptor, UniProt P17813 26-658)
chain: ETVHCDLQPVGPERGEVTYTTSQVSKGCVAQAPNAILEVHVLFLEFPTGPSQLELTLQASKQNGTWPREVLLVLSVNSSVFLHLQALGIPLHLAYNSSLVTFQEPPGVNTTELPSFPKTQILEWAAERGPITSAAELNDPQSILLRLGQAQGSLSFCMLEASQDMGRTLEWRPRTPALVRGCHLEGVAGHKEAHILRVLPGHSAGPRTVTVKVELSCAPGDLDAVLILQGPPYVSWLIDANHNMQIWTTGEYSFKIFPEKNIRGFKLPDTPQGLLGEARMLNASIVASFVELPLASIVSLHASSCGGRLQTSPAPIQTTPPKDTCSPELLMSLIQTKCADDAMTLVLKKELVAHLKCTITGLTFWDPSCEAEDRGDKFVLRSAYSSCGMQVSASMISNEAVVNILSSSSPQRKKVHCLNMDSLSFQLGLYLSPHFLQASNTIEPGQQSFVQVRVSPSVSEFLLQLDSCHLDLGPEGGTVELIQGRAAKGNCVSLLSPSPEGDPRFSFLLHFYTVPIPKTGTLSCTVALRPKTGSQDQEVHRTVFMRLNIISPDLSGCTSKGLVLPAVLGITFGAFLIGALLTAALWYIYSHTRSPSKREPVVAVAAPASSESSSTNHSIGSTQSTPCSTSSMA
In the case of B1, the binding result in experiment [2] is “binds”.
